This is one part of the list. The calls rarely recur for the same compound in another form.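 In K562 cells expressing nanoluciferase-fused kinases, luminescence was recorded at 4 h intervals between 2 and 18 h, normalized as percent of control with DMSO at 100% and a positive control at 0%. A significant (2 sigma) signal drop marks a time point as decreased. The authors' rule for a hit is not shown and takes in more than the number of time points.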
What was measured:
Test in all cases: kinase-Nluc reporter destabilization hit call (1 = scored as downregulated) (binary); higher = compound decreases kinase abundance
Conditions in all cases: K562; 2-18 h
MAPK1 = MAPK1 (UniProt P28482)
MAPK4 = MAPK4 (UniProt P31152)
MAPKAPK2 = MAPKAPK2 (UniProt P49137)
MKNK1 = MKNK1 (UniProt Q9BUB5)
NTRK3 = NTRK3 (UniProt Q16288)
PAK4 = PAK4 (UniProt O96013)
PBK = PBK (UniProt Q96KB5)
PDGFRB = PDGFRB (UniProt P09619)
PDK1 = PDK1 (UniProt Q15118)
PDPK1 = PDPK1 (UniProt O15530)
PIK4CA = PIK4CA (UniProt P42356)
PIK4CB = PIK4CB (UniProt Q9UBF8)
PLK1 = PLK1 (UniProt P53350)
PRKAA1 = PRKAA1 (UniProt Q13131)
PRKCA = PRKCA (UniProt P17252)
PTK2 = PTK2 (UniProt Q05397)
PTK2B = PTK2B (UniProt Q14289)
RAF1 = RAF1 (UniProt P04049)
[1] = biological target: RAF1_S257L (clone: RAF1_mut) (UniProt P04049)
NTRK2 = NTRK2 (UniProt Q16620)

The chains behind the UniProt entries cited, without tags or fusion partners. Where a name states a change or a piece, a line headed by the entry shows the natural chain unless it says otherwise.
UniProt P49137, whole entry, looked up: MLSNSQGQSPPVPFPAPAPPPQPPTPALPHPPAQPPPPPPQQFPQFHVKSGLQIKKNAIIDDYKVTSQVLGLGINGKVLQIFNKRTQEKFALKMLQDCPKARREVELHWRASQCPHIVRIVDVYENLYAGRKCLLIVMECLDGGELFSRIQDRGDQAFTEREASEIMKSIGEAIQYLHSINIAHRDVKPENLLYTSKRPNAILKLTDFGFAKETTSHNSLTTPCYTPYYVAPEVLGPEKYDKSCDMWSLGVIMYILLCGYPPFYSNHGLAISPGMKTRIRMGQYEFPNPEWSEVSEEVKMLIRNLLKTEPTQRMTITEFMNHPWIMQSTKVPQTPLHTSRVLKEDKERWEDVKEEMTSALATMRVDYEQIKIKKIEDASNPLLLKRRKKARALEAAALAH
UniProt O96013: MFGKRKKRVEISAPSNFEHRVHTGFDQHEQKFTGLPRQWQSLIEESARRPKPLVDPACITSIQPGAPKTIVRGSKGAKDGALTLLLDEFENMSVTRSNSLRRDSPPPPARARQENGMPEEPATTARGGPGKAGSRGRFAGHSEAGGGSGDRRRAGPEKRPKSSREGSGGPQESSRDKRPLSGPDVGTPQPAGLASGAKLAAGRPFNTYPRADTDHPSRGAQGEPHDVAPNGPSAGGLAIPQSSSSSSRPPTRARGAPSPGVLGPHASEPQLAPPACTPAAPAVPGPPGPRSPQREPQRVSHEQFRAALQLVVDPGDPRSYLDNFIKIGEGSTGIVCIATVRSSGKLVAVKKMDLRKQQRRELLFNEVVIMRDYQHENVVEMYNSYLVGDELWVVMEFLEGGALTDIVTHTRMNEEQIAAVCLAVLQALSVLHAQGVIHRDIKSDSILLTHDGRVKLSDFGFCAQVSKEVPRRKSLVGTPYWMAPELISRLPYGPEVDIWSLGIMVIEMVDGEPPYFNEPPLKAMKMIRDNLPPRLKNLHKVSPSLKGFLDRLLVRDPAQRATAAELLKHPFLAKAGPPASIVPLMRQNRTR
UniProt P09619, whole entry: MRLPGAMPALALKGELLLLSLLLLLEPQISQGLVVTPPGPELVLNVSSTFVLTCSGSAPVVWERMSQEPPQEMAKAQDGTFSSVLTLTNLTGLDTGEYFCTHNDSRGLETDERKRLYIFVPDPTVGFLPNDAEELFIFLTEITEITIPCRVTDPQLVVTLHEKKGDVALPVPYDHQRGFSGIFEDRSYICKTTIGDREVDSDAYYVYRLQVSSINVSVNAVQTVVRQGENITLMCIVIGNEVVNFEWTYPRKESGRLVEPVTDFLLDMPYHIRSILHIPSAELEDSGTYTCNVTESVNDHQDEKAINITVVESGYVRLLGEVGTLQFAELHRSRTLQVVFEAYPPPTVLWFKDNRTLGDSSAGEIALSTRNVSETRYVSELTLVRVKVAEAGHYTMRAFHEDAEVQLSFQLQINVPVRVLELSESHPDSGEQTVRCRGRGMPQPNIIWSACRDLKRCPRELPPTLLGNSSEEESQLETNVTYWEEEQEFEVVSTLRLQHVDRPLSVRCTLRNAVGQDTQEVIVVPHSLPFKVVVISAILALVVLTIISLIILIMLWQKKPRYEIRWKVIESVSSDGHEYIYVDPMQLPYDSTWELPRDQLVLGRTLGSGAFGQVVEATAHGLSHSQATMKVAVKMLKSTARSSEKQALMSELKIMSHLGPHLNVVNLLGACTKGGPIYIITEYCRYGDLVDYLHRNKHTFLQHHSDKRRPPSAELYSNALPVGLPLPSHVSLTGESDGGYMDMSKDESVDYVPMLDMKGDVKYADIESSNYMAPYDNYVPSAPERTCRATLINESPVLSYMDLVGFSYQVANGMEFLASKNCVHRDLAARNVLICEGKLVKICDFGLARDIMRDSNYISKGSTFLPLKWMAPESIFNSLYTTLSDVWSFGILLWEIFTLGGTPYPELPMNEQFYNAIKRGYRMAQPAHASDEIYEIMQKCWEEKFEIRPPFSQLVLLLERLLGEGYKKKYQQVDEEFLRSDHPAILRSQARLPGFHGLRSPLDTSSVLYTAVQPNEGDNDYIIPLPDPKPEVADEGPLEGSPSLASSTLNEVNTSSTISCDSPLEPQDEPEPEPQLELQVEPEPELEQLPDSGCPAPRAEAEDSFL
UniProt P42356, whole entry, looked up: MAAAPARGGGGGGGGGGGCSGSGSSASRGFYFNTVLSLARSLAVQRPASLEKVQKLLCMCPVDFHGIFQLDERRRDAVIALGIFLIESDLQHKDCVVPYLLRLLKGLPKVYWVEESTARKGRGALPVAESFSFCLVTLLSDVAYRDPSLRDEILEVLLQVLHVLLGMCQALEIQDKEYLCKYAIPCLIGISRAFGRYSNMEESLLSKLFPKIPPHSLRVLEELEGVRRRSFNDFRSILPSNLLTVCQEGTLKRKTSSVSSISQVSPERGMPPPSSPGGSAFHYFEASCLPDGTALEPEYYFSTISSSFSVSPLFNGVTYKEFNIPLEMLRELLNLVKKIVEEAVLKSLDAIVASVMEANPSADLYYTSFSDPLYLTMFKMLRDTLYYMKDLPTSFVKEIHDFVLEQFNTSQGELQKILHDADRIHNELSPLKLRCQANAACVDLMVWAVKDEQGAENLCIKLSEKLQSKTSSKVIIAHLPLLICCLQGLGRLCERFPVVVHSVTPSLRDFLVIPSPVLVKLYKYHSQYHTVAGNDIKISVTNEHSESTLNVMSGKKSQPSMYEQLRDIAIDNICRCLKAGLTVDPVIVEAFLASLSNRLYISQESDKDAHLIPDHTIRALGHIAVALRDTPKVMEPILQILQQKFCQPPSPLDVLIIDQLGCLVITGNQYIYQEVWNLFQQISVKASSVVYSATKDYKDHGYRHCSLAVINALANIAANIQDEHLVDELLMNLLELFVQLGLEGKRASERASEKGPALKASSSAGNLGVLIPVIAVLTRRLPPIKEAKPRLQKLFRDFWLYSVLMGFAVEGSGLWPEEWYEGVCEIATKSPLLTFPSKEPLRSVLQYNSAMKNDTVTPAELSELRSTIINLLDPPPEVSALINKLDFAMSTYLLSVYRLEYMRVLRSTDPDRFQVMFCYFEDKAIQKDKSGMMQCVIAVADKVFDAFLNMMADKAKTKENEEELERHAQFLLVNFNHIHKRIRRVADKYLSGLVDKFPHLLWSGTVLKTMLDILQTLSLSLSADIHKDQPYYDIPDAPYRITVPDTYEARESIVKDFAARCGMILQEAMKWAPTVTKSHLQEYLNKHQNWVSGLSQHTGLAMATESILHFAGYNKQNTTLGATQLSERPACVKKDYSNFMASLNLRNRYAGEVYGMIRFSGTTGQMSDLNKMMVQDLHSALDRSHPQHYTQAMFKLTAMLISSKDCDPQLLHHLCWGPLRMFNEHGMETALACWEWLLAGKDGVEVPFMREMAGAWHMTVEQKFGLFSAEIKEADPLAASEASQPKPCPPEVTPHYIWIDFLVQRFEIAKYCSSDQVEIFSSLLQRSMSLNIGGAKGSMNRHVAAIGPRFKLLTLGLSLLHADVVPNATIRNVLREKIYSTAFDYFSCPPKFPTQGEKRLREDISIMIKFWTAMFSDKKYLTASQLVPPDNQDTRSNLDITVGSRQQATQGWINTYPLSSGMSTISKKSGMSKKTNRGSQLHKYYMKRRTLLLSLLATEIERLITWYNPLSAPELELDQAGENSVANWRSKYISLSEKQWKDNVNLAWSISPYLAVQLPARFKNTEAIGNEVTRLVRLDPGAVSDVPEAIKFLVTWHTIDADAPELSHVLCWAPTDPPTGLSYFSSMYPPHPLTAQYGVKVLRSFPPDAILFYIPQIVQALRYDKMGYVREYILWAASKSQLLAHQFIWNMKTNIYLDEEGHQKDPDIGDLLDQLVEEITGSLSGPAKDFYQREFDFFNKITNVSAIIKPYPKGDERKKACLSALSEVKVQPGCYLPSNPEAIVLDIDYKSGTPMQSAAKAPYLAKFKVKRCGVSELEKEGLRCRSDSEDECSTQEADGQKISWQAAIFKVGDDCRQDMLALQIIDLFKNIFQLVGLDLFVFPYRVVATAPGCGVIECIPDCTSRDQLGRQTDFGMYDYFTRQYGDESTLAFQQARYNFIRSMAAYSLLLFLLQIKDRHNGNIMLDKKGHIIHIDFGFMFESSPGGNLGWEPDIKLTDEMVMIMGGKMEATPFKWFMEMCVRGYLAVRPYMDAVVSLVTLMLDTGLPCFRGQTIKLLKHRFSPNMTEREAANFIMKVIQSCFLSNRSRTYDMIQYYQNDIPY
UniProt Q9UBF8: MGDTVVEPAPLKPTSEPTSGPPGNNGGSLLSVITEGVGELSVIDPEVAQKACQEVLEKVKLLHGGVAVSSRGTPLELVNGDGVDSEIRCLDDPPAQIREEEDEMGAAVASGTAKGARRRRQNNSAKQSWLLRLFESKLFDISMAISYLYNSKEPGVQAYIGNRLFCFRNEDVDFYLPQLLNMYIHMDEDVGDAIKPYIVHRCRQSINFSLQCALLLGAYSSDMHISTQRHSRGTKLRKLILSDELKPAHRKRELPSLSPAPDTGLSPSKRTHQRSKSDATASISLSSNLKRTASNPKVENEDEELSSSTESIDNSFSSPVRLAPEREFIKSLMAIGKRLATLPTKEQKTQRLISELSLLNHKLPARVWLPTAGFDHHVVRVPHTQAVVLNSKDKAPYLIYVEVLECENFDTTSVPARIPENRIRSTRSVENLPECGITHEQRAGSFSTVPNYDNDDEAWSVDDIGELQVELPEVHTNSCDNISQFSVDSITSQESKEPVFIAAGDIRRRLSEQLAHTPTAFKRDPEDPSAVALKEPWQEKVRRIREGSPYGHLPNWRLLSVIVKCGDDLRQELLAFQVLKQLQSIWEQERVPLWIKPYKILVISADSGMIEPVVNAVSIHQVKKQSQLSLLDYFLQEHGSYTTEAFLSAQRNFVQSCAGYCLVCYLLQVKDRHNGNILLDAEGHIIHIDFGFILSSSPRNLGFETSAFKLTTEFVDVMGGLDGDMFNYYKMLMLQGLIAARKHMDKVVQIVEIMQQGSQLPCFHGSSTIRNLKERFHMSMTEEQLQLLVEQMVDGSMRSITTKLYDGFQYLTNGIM
UniProt Q13131: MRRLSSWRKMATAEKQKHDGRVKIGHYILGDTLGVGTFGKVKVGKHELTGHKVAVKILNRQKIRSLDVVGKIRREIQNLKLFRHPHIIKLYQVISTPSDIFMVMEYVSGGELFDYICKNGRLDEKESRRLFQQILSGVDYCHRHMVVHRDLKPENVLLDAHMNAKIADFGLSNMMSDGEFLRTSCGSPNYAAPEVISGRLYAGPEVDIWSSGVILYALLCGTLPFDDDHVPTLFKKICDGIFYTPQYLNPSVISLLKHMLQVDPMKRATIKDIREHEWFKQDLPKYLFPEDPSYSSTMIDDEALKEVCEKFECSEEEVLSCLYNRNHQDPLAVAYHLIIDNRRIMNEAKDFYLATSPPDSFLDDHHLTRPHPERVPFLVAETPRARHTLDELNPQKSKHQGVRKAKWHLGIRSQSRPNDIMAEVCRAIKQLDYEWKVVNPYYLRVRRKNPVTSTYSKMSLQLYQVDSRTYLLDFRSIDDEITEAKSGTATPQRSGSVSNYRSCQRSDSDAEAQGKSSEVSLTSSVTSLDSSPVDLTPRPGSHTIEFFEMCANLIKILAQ
UniProt Q16620, whole entry, looked up: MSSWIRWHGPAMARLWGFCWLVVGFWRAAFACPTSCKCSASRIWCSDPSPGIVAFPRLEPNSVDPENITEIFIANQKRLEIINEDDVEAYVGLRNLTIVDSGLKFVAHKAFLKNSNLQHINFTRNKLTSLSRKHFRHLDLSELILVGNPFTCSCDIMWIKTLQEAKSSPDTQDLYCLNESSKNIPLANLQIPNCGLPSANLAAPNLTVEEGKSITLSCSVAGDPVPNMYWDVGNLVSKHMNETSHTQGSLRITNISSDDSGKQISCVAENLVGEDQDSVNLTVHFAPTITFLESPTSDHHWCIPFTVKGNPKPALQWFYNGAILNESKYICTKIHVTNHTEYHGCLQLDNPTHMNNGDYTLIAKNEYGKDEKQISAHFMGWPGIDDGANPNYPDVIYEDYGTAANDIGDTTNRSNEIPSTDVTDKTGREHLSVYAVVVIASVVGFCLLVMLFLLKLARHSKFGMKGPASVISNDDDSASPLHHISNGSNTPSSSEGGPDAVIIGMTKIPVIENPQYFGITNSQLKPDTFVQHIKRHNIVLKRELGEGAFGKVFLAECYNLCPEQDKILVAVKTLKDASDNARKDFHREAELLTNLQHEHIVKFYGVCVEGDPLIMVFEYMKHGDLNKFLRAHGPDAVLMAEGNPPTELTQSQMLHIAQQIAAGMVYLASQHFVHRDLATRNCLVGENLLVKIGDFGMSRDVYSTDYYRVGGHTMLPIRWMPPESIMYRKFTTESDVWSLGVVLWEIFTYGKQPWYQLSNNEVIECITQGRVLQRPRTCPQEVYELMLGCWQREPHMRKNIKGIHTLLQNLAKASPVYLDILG

Measured: kinase-Nluc reporter destabilization hit call

CC(C)(Oc1ccc(Cl)cc1)C(=O)Nc1ccc(OCc2ccc(C#N)cc2)cc1 [AMPK activator 4] (10 µM)
inactive: MAPK1 = 0 | MAPK4 = 0 | MAPKAPK2 = 0 | MKNK1 = 0 | NTRK3 = 0 | PAK4 = 0 | PBK 0 | PDGFRB 0 | PDK1 = 0 | PDPK1 = 0 | PIK4CA 0 | PIK4CB 0 | PLK1 = 0 | PRKAA1 = 0 | PRKCA 0 | PTK2 = 0 | PTK2B 0 | RAF1 = 0 | [1] 0

Cc1cnc(Nc2ccc(F)cc2Cl)nc1-c1c[nH]c(C(=O)N[C@H](CO)c2cccc(Cl)c2)c1 (10 µM)
inactive: MAPK4 = 0 | MAPKAPK2 = 0 | MKNK1 = 0 | NTRK2 = 0 | NTRK3 = 0 | PAK4 = 0 | PBK 0 | PDGFRB 0 | PDK1 = 0 | PDPK1 = 0 | PIK4CA 0 | PIK4CB 0 | PLK1 = 0 | PRKAA1 = 0 | PRKCA 0 | PTK2 = 0 | PTK2B 0 | RAF1 = 0 | [1] 0

Cc1ncsc1-c1ccc(CNC(=O)[C@@H]2C[C@@H](O)CN2C(=O)[C@@H](NC(=O)COCCOc2ccc(-c3cc(Nc4ccc(OC(F)(F)F)cc4)ncn3)cc2)C(C)(C)C)cc1 (2.5 µM)
inactive: MAPK1 = 0 | MAPK4 = 0 | MAPKAPK2 = 0 | MKNK1 = 0 | NTRK3 = 0 | PAK4 = 0 | PBK 0 | PDGFRB 0 | PDK1 = 0 | PDPK1 = 0 | PIK4CA 0 | PIK4CB 0 | PLK1 = 0 | PRKAA1 = 0 | PRKCA 0 | PTK2 = 0 | PTK2B 0 | RAF1 = 0 | [1] 0

CCCCNc1ncc2c(-c3ccc(F)cc3)nn(CC3CCC(N)CC3)c2n1 (stereo not drawn) (2.5 µM)
inactive: MAPK1 = 0 | MAPK4 = 0 | MAPKAPK2 = 0 | MKNK1 = 0 | NTRK3 = 0 | PAK4 = 0 | PBK 0 | PDGFRB 0 | PDK1 = 0 | PDPK1 = 0 | PIK4CA 0 | PIK4CB 0 | PLK1 = 0 | PRKAA1 = 0 | PRKCA 0 | PTK2 = 0 | PTK2B 0 | RAF1 = 0 | [1] 0

COc1cc(N2CCC(N3CCN(C)CC3)CC2)ccc1Nc1ncnc(Nc2ccccc2S(=O)(=O)C(C)C)n1 (10 µM)
inactive: MAPK1 = 0 | MAPK4 = 0 | MAPKAPK2 = 0 | MKNK1 = 0 | NTRK3 = 0 | PAK4 = 0 | PBK 0 | PDGFRB 0 | PDK1 = 0 | PDPK1 = 0 | PIK4CA 0 | PIK4CB 0 | PLK1 = 0 | PRKAA1 = 0 | PRKCA 0 | PTK2 = 0 | PTK2B 0 | RAF1 = 0 | [1] 0

COc1cc2c(cc1OC)[C@@H]1C(=O)c3ccc4c(c3O[C@@H]1CO2)C=CC(C)(C)O4 [Deguelin] (10 µM)
inactive: MAPK1 = 0 | MAPK4 = 0 | MAPKAPK2 = 0 | MKNK1 = 0 | NTRK3 = 0 | PAK4 = 0 | PBK 0 | PDGFRB 0 | PDK1 = 0 | PDPK1 = 0 | PIK4CA 0 | PIK4CB 0 | PLK1 = 0 | PRKAA1 = 0 | PRKCA 0 | PTK2 = 0 | PTK2B 0 | RAF1 = 0 | [1] 0

CCC(F)(F)c1cc(N2CCC(S(C)(=O)=O)CC2)nc2sc(C(N)=O)c(N)c12 (10 µM)
inactive: MAPK1 = 0 | MAPK4 = 0 | MAPKAPK2 = 0 | MKNK1 = 0 | NTRK3 = 0 | PAK4 = 0 | PBK 0 | PDGFRB 0 | PDK1 = 0 | PDPK1 = 0 | PIK4CA 0 | PIK4CB 0 | PLK1 = 0 | PRKAA1 = 0 | PRKCA 0 | PTK2 = 0 | PTK2B 0 | RAF1 = 0 | [1] 0

Nc1ccc(O)c(C(=O)O)c1 [5-Aminosalicylic Acid] (10 µM)
inactive: MAPK1 = 0 | MAPK4 = 0 | MAPKAPK2 = 0 | MKNK1 = 0 | NTRK3 = 0 | PAK4 = 0 | PBK 0 | PDGFRB 0 | PDK1 = 0 | PDPK1 = 0 | PIK4CA 0 | PIK4CB 0 | PLK1 = 0 | PRKAA1 = 0 | PRKCA 0 | PTK2 = 0 | PTK2B 0 | RAF1 = 0 | [1] 0

COC(=O)N1CCN(C2CCC(Nc3nc(Nc4cnn(C)c4)nc4ccc(CC#N)nc34)CC2)CC1 (stereo not drawn) (10 µM)
inactive: MAPK1 = 0 | MAPK4 = 0 | MAPKAPK2 = 0 | MKNK1 = 0 | NTRK3 = 0 | PAK4 = 0 | PBK 0 | PDGFRB 0 | PDK1 = 0 | PDPK1 = 0 | PIK4CA 0 | PIK4CB 0 | PLK1 = 0 | PRKAA1 = 0 | PRKCA 0 | PTK2 = 0 | PTK2B 0 | RAF1 = 0 | [1] 0

Nc1ccc(Sc2nc3ccccc3s2)c(Cl)c1 [KRAS inhibitor-9] (10 µM)
inactive: MAPK1 = 0 | MAPK4 = 0 | MAPKAPK2 = 0 | MKNK1 = 0 | NTRK3 = 0 | PAK4 = 0 | PBK 0 | PDGFRB 0 | PDK1 = 0 | PDPK1 = 0 | PIK4CA 0 | PIK4CB 0 | PLK1 = 0 | PRKAA1 = 0 | PRKCA 0 | PTK2 = 0 | PTK2B 0 | RAF1 = 0 | [1] 0

Cc1cccc(CC(=O)N2CCc3c2ccc(-c2cn(C)c4ncnc(N)c24)c3F)n1 (10 µM)
inactive: MAPK1 = 0 | MAPK4 = 0 | MAPKAPK2 = 0 | MKNK1 = 0 | NTRK3 = 0 | PAK4 = 0 | PBK 0 | PDGFRB 0 | PDK1 = 0 | PDPK1 = 0 | PIK4CA 0 | PIK4CB 0 | PLK1 = 0 | PRKAA1 = 0 | PRKCA 0 | PTK2 = 0 | PTK2B 0 | RAF1 = 0 | [1] 0

O=C1C=CC2=C3c4cc(O)c(O)cc4CC3(O)COC2=C1O (stereo not drawn) [Hematein] (10 µM)
inactive: MAPK1 = 0 | MAPK4 = 0 | MAPKAPK2 = 0 | MKNK1 = 0 | NTRK3 = 0 | PAK4 = 0 | PBK 0 | PDGFRB 0 | PDK1 = 0 | PDPK1 = 0 | PIK4CA 0 | PIK4CB 0 | PLK1 = 0 | PRKAA1 = 0 | PRKCA 0 | PTK2 = 0 | PTK2B 0 | RAF1 = 0 | [1] 0

CN(C)CCOc1cc(-c2cn[nH]c2)ccc1NC(=O)C1COc2ccccc2O1 (stereo not drawn) (10 µM)
inactive: MAPK1 = 0 | MAPK4 = 0 | MAPKAPK2 = 0 | MKNK1 = 0 | NTRK3 = 0 | PAK4 = 0 | PBK 0 | PDGFRB 0 | PDK1 = 0 | PDPK1 = 0 | PIK4CA 0 | PIK4CB 0 | PLK1 = 0 | PRKAA1 = 0 | PRKCA 0 | PTK2 = 0 | PTK2B 0 | RAF1 = 0 | [1] 0

O=C(Nc1ccc(Cl)cc1)C1CN(C(=O)c2cccc(-c3ccco3)c2)CC(F)(F)C1 (stereo not drawn) (2.5 µM)
inactive: MAPK1 = 0 | MAPK4 = 0 | MAPKAPK2 = 0 | MKNK1 = 0 | NTRK3 = 0 | PAK4 = 0 | PBK 0 | PDGFRB 0 | PDK1 = 0 | PDPK1 = 0 | PIK4CA 0 | PIK4CB 0 | PLK1 = 0 | PRKAA1 = 0 | PRKCA 0 | PTK2 = 0 | PTK2B 0 | RAF1 = 0 | [1] 0

N#CC(=C(/N)Sc1ccccc1N)/C(C#N)=C(\N)Sc1ccccc1N (10 µM)
inactive: MAPK1 = 0 | MAPK4 = 0 | MAPKAPK2 = 0 | MKNK1 = 0 | NTRK3 = 0 | PAK4 = 0 | PBK 0 | PDGFRB 0 | PDK1 = 0 | PDPK1 = 0 | PIK4CA 0 | PIK4CB 0 | PLK1 = 0 | PRKAA1 = 0 | PRKCA 0 | PTK2 = 0 | PTK2B 0 | RAF1 = 0 | [1] 0

C=CC(=O)N1CCC(c2ccc(C(N)=O)c(-c3ccc(Oc4ccccc4)cc3)n2)CC1 [Orelabrutinib] (2.5 µM)
inactive: MAPK1 = 0 | MAPK4 = 0 | MAPKAPK2 = 0 | MKNK1 = 0 | NTRK3 = 0 | PAK4 = 0 | PBK 0 | PDGFRB 0 | PDK1 = 0 | PDPK1 = 0 | PIK4CA 0 | PIK4CB 0 | PLK1 = 0 | PRKAA1 = 0 | PRKCA 0 | PTK2 = 0 | PTK2B 0 | RAF1 = 0 | [1] 0

COc1cc2nc(-c3cc(F)ccc3O)nc(N[C@@H]3CNC[C@H]3C(C)(C)O)c2cc1OC (2.5 µM)
inactive: MAPK1 = 0 | MAPK4 = 0 | MAPKAPK2 = 0 | MKNK1 = 0 | NTRK3 = 0 | PAK4 = 0 | PBK 0 | PDGFRB 0 | PDK1 = 0 | PDPK1 = 0 | PIK4CA 0 | PIK4CB 0 | PLK1 = 0 | PRKAA1 = 0 | PRKCA 0 | PTK2 = 0 | PTK2B 0 | RAF1 = 0 | [1] 0

Some of these compounds in order of count of non-hydrogen atoms, ascending.
N#CC(=C(/N)Sc1ccccc1N)/C(C#N)=C(\N)Sc1ccccc1N (10 µM)
inactive: MAPK1 = 0 | MAPK4 = 0 | MAPKAPK2 = 0 | MKNK1 = 0 | NTRK3 = 0 | PAK4 = 0 | PBK 0 | PDGFRB 0 | PDK1 = 0 | PDPK1 = 0 | PIK4CA 0 | PIK4CB 0 | PLK1 = 0 | PRKAA1 = 0 | PRKCA 0 | PTK2 = 0 | PTK2B 0 | RAF1 = 0 | [1] 0

CN(C)CCOc1cc(-c2cn[nH]c2)ccc1NC(=O)C1COc2ccccc2O1 (stereo not drawn) (10 µM)
inactive: MAPK1 = 0 | MAPK4 = 0 | MAPKAPK2 = 0 | MKNK1 = 0 | NTRK3 = 0 | PAK4 = 0 | PBK 0 | PDGFRB 0 | PDK1 = 0 | PDPK1 = 0 | PIK4CA 0 | PIK4CB 0 | PLK1 = 0 | PRKAA1 = 0 | PRKCA 0 | PTK2 = 0 | PTK2B 0 | RAF1 = 0 | [1] 0

C=CC(=O)N1CCC(c2ccc(C(N)=O)c(-c3ccc(Oc4ccccc4)cc3)n2)CC1 [Orelabrutinib] (2.5 µM)
inactive: MAPK1 = 0 | MAPK4 = 0 | MAPKAPK2 = 0 | MKNK1 = 0 | NTRK3 = 0 | PAK4 = 0 | PBK 0 | PDGFRB 0 | PDK1 = 0 | PDPK1 = 0 | PIK4CA 0 | PIK4CB 0 | PLK1 = 0 | PRKAA1 = 0 | PRKCA 0 | PTK2 = 0 | PTK2B 0 | RAF1 = 0 | [1] 0

— the supplement of paper PMC12823440, “Inhibitors supercharge kinase turnover through native proteolytic circuits” (Nature, 2025)
